First the molecules themselves.
B1: HK1 (protein, UniProt P19367 1-917)
chain: MIAAQLLAYYFTELKDDQVKKIDKYLYAMRLSDETLIDIMTRFRKEMKNGLSRDFNPTATVKMLPTFVRSIPDGSEKGDFIALDLGGSSFRILRVQVNHEKNQNVHMESEVYDTPENIVHGSGSQLFDHVAECLGDFMEKRKIKDKKLPVGFTFSFPCQQSKIDEAILITWTKRFKASGVEGADVVKLLNKAIKKRGDYDANIVAVVNDTVGTMMTCGYDDQHCEVGLIIGTGTNACYMEELRHIDLVEGDEGRMCINTEWGAFGDDGSLEDIRTEFDREIDRGSLNPGKQLFEKMVSGMYLGELVRLILVKMAKEGLLFEGRITPELLTRGKFNTSDVSAIEKNKEGLHNAKEILTRLGVEPSDDDCVSVQHVCTIVSFRSANLVAATLGAILNRLRDNKGTPRLRTTVGVDGSLYKTHPQYSRRFHKTLRRLVPDSDVRFLLSESGSGKGAAMVTAVAYRLAEQHRQIEETLAHFHLTKDMLLEVKKRMRAEMELGLRKQTHNNAVVKMLPSFVRRTPDGTENGDFLALDLGGTNFRVLLVKIRSGKKRTVEMHNKIYAIPIEIMQGTGEELFDHIVSCISDFLDYMGIKGPRMPLGFTFSFPCQQTSLDAGILITWTKGFKATDCVGHDVVTLLRDAIKRREEFDLDVVAVVNDTVGTMMTCAYEEPTCEVGLIVGTGSNACYMEEMKNVEMVEGDQGQMCINMEWGAFGDNGCLDDIRTHYDRLVDEYSLNAGKQRYEKMISGMYLGEIVRNILIDFTKKGFLFRGQISETLKTRGIFETKFLSQIESDRLALLQVRAILQQLGLNSTCDDSILVKTVCGVVSRRAAQLCGAGMAAVVDKIRENRGLDRLNVTVGVDGTLYKLHPHFSRIMHQTVKELSPKCNVSFLLSEDGSGKGAALITAVGVRLRTEASS
B2: GSS (protein, UniProt P48637 1-474)
chain: MATNWGSLLQDKQQLEELARQAVDRALAEGVLLRTSQEPTSSEVVSYAPFTLFPSLVPSALLEQAYAVQMDFNLLVDAVSQNAAFLEQTLSSTIKQDDFTARLFDIHKQVLKEGIAQTVFLGLNRSDYMFQRSADGSPALKQIEINTISASFGGLASRTPAVHRHVLSVLSKTKEAGKILSNNPSKGLALGIAKAWELYGSPNALVLLIAQEKERNIFDQRAIENELLARNIHVIRRTFEDISEKGSLDQDRRLFVDGQEIAVVYFRDGYMPRQYSLQNWEARLLLERSHAAKCPDIATQLAGTKKVQQELSRPGMLEMLLPGQPEAVARLRATFAGLYSLDVGEEGDQAIAEALAAPSRFVLKPQREGGGNNLYGEEMVQALKQLKDSEERASYILMEKIEPEPFENCLLRPGSPARVVQCISELGIFGVYVRQEKTLVMNKHVGHLLRTKAIEHADGGVAAGVAVLDNPYPV
B3: LPP (protein, UniProt Q93052 1-612)
chain: MSHPSWLPPKSTGEPLGHVPARMETTHSFGNPSISVSTQQPPKKFAPVVAPKPKYNPYKQPGGEGDFLPPPPPPLDDSSALPSISGNFPPPPPLDEEAFKVQGNPGGKTLEERRSSLDAEIDSLTSILADLECSSPYKPRPPQSSTGSTASPPVSTPVTGHKRMVIPNQPPLTATKKSTLKPQPAPQAGPIPVAPIGTLKPQPQPVPASYTTASTSSRPTFNVQVKSAQPSPHYMAAPSSGQIYGSGPQGYNTQPVPVSGQCPPPSTRGGMDYAYIPPPGLQPEPGYGYAPNQGRYYEGYYAAGPGYGGRNDSDPTYGQQGHPNTWKREPGYTPPGAGNQNPPGMYPVTGPKKTYITDPVSAPCAPPLQPKGGHSGQLGPSSVAPSFRPEDELEHLTKKMLYDMENPPADEYFGRCARCGENVVGEGTGCTAMDQVFHVDCFTCIICNNKLRGQPFYAVEKKAYCEPCYINTLEQCNVCSKPIMERILRATGKAYHPHCFTCVMCHRSLDGIPFTVDAGGLIHCIEDFHKKFAPRCSVCKEPIMPAPGQEETVRIVALDRDFHVHCYRCEDCGGLLSEGDNQGCYPLDGHILCKTCNSARIRVLTAKASTDL

Protein sequences, listed by entry. Tags and fused reporters are not part of them.
UniProt P35579: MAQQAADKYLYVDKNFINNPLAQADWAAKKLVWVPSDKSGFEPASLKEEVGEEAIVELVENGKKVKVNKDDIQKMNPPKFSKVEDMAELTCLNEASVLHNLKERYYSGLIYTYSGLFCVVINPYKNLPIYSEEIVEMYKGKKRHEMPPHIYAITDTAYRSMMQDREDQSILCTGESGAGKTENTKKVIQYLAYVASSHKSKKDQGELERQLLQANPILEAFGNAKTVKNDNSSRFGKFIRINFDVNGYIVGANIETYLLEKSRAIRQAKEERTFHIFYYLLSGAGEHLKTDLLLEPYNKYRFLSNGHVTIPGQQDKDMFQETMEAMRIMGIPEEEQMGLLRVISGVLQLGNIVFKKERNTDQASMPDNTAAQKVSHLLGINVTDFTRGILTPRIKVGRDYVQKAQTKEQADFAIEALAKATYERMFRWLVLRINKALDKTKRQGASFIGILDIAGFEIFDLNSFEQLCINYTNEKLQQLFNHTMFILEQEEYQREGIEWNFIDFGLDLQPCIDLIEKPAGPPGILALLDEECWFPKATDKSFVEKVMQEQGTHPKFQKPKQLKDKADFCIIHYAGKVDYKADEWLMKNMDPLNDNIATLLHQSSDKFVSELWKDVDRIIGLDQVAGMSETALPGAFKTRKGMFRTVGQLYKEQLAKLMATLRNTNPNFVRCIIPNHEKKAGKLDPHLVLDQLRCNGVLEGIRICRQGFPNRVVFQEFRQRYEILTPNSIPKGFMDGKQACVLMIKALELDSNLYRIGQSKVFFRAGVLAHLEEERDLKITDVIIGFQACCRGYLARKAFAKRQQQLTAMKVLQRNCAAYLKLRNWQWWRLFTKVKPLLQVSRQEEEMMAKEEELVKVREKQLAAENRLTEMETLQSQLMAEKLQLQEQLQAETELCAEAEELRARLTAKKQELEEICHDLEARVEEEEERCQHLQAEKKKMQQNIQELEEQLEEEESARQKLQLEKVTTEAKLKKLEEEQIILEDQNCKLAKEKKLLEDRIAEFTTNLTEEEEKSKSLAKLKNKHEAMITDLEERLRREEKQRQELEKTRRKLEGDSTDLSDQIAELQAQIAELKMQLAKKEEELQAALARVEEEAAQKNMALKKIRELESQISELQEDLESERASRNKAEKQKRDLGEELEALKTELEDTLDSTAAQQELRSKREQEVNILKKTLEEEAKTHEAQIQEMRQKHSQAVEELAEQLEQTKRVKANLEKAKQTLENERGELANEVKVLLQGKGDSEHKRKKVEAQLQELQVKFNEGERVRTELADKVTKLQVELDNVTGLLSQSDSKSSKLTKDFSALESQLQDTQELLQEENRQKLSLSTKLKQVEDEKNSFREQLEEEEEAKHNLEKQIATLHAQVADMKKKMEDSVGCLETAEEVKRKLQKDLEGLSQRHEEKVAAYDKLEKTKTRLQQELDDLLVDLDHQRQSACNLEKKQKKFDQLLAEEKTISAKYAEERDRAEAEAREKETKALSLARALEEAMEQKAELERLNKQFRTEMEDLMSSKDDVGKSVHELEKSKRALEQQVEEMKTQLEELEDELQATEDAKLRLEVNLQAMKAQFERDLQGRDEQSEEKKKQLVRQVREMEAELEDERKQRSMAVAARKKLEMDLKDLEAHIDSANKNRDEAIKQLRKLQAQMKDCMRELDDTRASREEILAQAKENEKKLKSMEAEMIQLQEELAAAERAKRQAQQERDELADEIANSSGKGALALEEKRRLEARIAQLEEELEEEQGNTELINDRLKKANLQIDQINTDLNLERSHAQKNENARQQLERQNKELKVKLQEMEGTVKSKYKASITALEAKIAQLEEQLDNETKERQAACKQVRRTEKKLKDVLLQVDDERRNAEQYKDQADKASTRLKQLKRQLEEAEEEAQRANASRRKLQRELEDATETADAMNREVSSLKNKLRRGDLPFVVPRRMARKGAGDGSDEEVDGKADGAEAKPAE
UniProt P26038: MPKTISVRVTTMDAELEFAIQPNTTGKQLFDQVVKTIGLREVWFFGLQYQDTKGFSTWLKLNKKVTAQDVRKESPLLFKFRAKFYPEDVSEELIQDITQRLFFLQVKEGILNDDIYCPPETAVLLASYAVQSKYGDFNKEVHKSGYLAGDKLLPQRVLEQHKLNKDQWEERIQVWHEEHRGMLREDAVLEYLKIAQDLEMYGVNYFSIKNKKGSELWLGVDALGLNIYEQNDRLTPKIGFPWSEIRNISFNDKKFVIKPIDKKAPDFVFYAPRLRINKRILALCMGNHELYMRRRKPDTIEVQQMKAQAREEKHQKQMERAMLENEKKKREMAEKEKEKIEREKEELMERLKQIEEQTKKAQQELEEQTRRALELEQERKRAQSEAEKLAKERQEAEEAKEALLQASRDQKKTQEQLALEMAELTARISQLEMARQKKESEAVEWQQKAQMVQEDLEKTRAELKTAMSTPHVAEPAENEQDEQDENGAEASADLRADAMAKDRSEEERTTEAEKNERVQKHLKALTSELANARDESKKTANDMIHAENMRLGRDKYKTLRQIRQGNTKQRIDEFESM
UniProt P29590: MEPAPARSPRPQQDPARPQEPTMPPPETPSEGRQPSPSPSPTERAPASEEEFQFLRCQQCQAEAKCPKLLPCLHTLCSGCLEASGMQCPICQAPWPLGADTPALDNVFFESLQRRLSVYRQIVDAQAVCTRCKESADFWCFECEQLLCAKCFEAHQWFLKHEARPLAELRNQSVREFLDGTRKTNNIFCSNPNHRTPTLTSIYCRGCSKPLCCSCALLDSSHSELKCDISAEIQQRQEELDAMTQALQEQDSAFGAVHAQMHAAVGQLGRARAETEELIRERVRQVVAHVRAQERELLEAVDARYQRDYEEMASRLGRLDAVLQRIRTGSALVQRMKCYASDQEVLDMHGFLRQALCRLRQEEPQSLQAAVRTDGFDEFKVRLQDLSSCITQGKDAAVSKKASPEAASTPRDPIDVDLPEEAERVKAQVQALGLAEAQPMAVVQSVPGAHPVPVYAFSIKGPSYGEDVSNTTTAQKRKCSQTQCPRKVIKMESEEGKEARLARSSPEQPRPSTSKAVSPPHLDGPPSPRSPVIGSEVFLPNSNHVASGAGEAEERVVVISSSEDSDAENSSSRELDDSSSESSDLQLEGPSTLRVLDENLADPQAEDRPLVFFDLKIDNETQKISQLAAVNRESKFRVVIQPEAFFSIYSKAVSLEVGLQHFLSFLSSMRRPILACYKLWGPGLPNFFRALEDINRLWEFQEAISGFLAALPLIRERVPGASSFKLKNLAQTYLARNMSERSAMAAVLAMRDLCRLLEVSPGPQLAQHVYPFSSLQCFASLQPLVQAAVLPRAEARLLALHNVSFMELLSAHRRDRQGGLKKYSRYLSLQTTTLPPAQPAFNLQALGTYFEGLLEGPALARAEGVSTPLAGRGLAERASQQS
UniProt P07951: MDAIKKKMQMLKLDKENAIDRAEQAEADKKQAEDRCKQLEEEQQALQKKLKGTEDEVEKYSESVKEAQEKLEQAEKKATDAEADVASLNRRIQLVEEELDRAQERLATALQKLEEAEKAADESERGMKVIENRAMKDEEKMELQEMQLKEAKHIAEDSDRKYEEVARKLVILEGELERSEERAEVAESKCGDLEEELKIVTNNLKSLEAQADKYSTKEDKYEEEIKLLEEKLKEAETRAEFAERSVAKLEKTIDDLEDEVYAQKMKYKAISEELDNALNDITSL
UniProt Q8VDD5: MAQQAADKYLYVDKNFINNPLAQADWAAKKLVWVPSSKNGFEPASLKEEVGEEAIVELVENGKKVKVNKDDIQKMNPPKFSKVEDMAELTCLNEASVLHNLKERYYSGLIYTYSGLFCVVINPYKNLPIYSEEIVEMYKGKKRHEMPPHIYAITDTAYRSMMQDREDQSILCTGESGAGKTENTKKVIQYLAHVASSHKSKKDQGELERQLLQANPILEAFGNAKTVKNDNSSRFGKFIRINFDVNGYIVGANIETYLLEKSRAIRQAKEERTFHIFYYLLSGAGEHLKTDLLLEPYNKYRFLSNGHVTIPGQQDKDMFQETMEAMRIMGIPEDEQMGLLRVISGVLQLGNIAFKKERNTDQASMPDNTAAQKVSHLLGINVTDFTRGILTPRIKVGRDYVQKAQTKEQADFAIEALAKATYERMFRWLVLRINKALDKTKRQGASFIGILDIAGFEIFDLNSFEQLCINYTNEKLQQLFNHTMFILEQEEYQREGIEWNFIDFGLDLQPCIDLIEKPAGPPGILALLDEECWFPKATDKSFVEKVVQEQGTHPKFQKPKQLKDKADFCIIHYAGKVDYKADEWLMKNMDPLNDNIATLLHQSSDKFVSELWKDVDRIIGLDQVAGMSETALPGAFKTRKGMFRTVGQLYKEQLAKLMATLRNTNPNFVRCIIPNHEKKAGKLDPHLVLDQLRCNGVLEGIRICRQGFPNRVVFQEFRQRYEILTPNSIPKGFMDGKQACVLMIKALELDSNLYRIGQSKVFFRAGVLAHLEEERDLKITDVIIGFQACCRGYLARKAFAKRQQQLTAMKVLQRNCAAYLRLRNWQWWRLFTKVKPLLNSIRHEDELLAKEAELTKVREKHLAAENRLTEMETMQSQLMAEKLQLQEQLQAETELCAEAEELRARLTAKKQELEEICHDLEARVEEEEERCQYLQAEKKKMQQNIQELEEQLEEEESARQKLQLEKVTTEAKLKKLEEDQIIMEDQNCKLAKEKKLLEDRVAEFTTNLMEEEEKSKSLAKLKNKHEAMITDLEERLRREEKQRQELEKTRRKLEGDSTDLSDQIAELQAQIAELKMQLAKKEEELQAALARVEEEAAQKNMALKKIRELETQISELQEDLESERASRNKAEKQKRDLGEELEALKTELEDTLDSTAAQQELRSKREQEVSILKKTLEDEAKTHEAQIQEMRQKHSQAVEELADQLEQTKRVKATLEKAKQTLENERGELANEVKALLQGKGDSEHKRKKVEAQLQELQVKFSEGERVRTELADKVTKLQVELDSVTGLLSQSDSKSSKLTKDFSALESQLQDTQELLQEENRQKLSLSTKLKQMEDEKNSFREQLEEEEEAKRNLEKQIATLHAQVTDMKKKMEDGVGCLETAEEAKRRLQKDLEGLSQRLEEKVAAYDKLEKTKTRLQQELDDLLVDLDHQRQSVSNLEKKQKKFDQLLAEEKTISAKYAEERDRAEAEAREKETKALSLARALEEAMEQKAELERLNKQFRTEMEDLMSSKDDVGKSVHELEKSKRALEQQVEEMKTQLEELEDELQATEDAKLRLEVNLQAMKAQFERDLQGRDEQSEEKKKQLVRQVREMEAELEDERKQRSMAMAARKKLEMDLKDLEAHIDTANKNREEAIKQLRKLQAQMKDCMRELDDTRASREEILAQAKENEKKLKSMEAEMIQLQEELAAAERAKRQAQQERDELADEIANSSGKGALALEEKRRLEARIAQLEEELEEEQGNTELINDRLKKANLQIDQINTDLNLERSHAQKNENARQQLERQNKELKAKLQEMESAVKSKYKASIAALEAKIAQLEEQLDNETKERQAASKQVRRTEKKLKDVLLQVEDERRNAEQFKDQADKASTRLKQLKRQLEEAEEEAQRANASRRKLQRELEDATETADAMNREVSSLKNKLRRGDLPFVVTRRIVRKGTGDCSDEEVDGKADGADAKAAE
UniProt P26043: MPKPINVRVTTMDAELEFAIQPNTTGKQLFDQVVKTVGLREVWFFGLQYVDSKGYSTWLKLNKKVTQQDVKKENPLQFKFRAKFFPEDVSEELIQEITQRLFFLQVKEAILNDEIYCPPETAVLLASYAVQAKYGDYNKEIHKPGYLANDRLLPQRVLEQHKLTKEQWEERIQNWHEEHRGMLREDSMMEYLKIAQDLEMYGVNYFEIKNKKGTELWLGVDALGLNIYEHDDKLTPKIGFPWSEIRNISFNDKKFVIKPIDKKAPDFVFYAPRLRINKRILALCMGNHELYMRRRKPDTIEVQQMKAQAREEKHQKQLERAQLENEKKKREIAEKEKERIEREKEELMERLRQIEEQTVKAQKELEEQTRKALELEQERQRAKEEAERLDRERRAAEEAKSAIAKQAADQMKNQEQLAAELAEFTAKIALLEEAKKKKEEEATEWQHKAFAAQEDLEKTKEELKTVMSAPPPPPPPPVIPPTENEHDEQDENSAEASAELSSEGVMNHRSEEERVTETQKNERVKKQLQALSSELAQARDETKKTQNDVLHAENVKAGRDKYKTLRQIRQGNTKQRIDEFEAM

Binding data for 16 molecules are collected here from PMC4065073.

These are yes or no findings as the source states them, for the method shown. In cells and extracts the contact can be indirect. Here binding means that the protein was enriched with, or labelled near, the bait; the list need not be complete.

One assay has as its target non-muscle myosin heavy chain IIA (human) (human (endogenous in human conditionally immortalized podocytes)) (UniProt P35579). The assay can be described thus: affinity purification with mass spectrometry; the same approach repeated with human conditionally immortalized podocytes cultured at growth permissive and growth restrictive conditions; cross-linked lysate, anti-NMMHCIIA antibody columns, LC/MS.
For the molecule “moesin (human) (from UniProt P26038 1-577)”, the binding entry is listed as “binds”.
For PML (from UniProt P29590 1-882), the binding entry is reported as “binds”.
Still for that read-out and setting: the result for NUMA1 (from UniProt Q14980 1-2115) reads “binds”.
For GPI (from UniProt P06744 1-558), the binding result is recorded as “binds”.
With “radixin (human) (from UniProt P35241 1-583)”, the binding entry is listed as “binds”.
As for FLNC (from UniProt Q14315 1-2725), the binding entry is “binds”.
In the case of TPM2 (from UniProt P07951 1-284), the binding entry is on record as “binds”.
Still for that read-out and setting: the result for “NMMHCIIC (human) (from UniProt Q7Z406 1-1995)” reads “binds”; that for “NMMHCIIB (human) (from UniProt P35580 1-1976)”, “binds”; that for B1, “binds”.
B2: the binding result was “binds”.
On the same count and under the same terms, under B3 stands “binds”.

Another assay concerns the target non-muscle myosin heavy chain IIA (mouse) (mouse (endogenous in murine conditionally immortalized podocytes)) (UniProt Q8VDD5). The assay can be described thus: affinity purification with mass spectrometry; murine conditionally immortalized podocytes, one week at growth restrictive conditions; total lysate (T-Per) cross-linked in paraformaldehyde; columns of rabbit polyclonal antibody against the C-terminal dodecapeptide of NMMHCIIA; tryptic peptides by LC/MS on an LTQ ion trap, searched against the human nonredundant database.
Take “moesin (mouse) (from UniProt P26041 1-577)”: the binding result is reported as “binds”.
Take “NMMHCIIB (mouse) (from UniProt Q61879 1-1976)”: the binding entry is “binds”.
On the same count and under the same terms, under “NMMHCIIC (mouse) (from UniProt Q6URW6 1-2000)” stands “binds”; under “radixin (mouse) (from UniProt P26043 1-583)”, “binds”.
